PubChem BioAssay AID504808, Drosophila RNAi Screening Center, 2011
The screen tested about 21,000 reagents; this is a random part of those with a known target gene and a result. In the full data, 18 (0.084%) are marked active. 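Raw counts without plate normalisation, one of two replicates; the ratio scores behind the calls were not deposited.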 Entries without a mark were called inactive. No sequences are given here. The record does not give: the amount of reagent, the time to read-out.

Screen: 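Fly genes required to hold E2F transcription in check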 (primary screen)
Cells: Drosophila S2 cells
Reagents: long dsRNA against Drosophila genes
Measurement: 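Firefly luciferase driven by E2F sites, normalised to Renilla luciferase on the same minimal promoter, measured by plate reader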
Scale: E2F firefly: higher = more E2F reporter activity; Renilla normaliser: higher = more normaliser reporter signal
Hit rule: 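Called active if the normalised E2F reporter went up by over 50%; the cutoff is arbitrary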

no.	target gene	amplicon	E2F firefly, rep 1	Renilla normaliser, rep 1
1	CG2931	DRSC12324	1.20e5	6264
2	gammaSnap2	DRSC15992	1.48e5	7474
3	Or24a	DRSC00768	1.44e5	4916
4	Vajk1	DRSC01882	1.06e5	4635
5	TfIIS	DRSC03455	88284	3763
6	en	DRSC07609	1.01e5	4380
7	Nna1	DRSC19404	8777	648
8	Naa30A	DRSC18583	1279	960
9	Jhbp11	DRSC15183	1.17e5	6153
10	CG33282	DRSC00422	1.55e5	4929
11	CG14949	DRSC08408	1.01e5	3960
12	sty	DRSC08737	1.14e5	4374
13	Fas1	DRSC16669	1.23e5	5966

Next part, starting with the last 2 of the part before.
no.	target gene	amplicon	E2F firefly, rep 1	Renilla normaliser, rep 1
12	sty	DRSC08737	1.14e5	4374
13	Fas1	DRSC16669	1.23e5	5966
14	Nup35	DRSC19999	1.34e5	4786
15	Tctp	DRSC15649	1.57e5	6987
16	Alg12	DRSC16416	1.67e5	7697
17	IPIP	DRSC02164	95949	4008
18	CG31388	DRSC15254	73865	3358
19	Mid1	DRSC04230	1.18e5	5378
20	Mid1	DRSC04231	1.09e5	4943
21	Mid1	DRSC04308	1.04e5	4794
22	CG5906	DRSC10557	1.38e5	7025
23	CG15650	DRSC04241	1.04e5	4215
24	Mco1	DRSC02720	1.40e5	5159
25	Flad2	DRSC02531	1.07e5	4530
26	CG31431	DRSC14589	1.52e5	7878
27	CG3919	DRSC10389	82240	3446
28	Ugt35D1	DRSC15107	58543	3825
29	whe	DRSC20537	1.45e5	7074
30	CG18682 (retired record)	DRSC15373	1.11e5	5553
31	CG18682 (retired record)	DRSC15374	1.11e5	5409
32	CG10077	DRSC09691	58092	3058
33	Npc2e	DRSC15522	1.36e5	5653
34	MTPAP	DRSC18585	1.15e5	5068
